For the test, the target named is taxol-stabilized microtubules polymerized from unlabeled tubulin. Kind of test: co-sedimentation; purified KCH construct mixed with taxol-stabilized microtubules, BRB80/25 mM KCl, 40 µM taxol, room temperature 30 min, 100,000 x g 20 min at 37 °C; Coomassie SDS-PAGE of supernatant and pellet; both purified.

These are yes or no findings as the source states them, for the method shown. Binding can be weak; no strength is given. Sequences can lack the tags named with a protein.

B1: GFP-OsKCH1(292–744) (domain or fragment, O. sativa, UniProt Q0IMS9 292-744, looked up)
chain: GEVKQFQLEAQTNFDVQQKQIQELKGALSFVKSGMEQLRLQYSEEFAKLGKHFYTLSNAASSYHKVLEENRKLYNQIQDLKGNIRVYCRVRPFLPGHRSLSSSVADTEERTITIITPTKYGKDGCKSFSFNRVFGPASTQEEVFSDMQPLIRSVLDGFNVCIFAYGQTGSGKTFTMSGPKVLTEESLGVNYRALNDLFNIKAQRKGTIDYEISVQMIEIYNEQVRDLLQDGGNRRLEIRNTPQKGLAVPDASIVPVTSTADVVELMNQGQKNRAVGSTAINDRSSRSHSCLSVHVQGKYLTSGAMLRGCMHLVDLAGSERVDKSEVVGDRLKEAQYINKSLSALGDVIASLAQKNSHVPYRNSKLTQLLQDSLGGQAKTLMFVHVSPELDAVGETISTLKFAERVASVELGAAKANKEGSEVRELKEQIATLKAALAKKEGEPENIQSTQSSP
notes: codon-optimized synthetic cDNA; source: E. coli BL21 Rosetta (DE3), purified (Talon beads); not shown: GFP, N-terminal, kept
Turning to B1, the binding entry is given as “binds weakly”.

The record behind these values is paper PMC5852081, “The preprophase band-associated kinesin-14 OsKCH2 is a processive minus-end-directed microtubule motor” (Nature Communications, 2018).
